Measurements: patent US20020146441A1, “Selection method for cosmetic auxiliaries” (priority 2000, published 2002)
At least one compound was matched to its structure with a doubt left.

Assays:
[1] = O/W emulsion, substantivity on skin model (water resistance, watering test); assay type: physicochemical, sheep; settings: amount found after 20 min watering relative to unwatered sample, isopropanol extract, GC, converted to the logarithm
Procedure: (§1) The amounts of the cosmetic auxiliaries found in the phase to be cared for are compared with the amount found in the cosmetic phase (relative partition parameters). These values are converted to the logarithm and entered as activity values into the regression table (Table 1). Using various methods, regression against the COSMO-RS and other descriptors (e.g. clogP and boiling point) are carried out, and the best correlation according to the validation is selected. In all of the regression equations belonging to the examples, cosmetic auxiliaries with a deviation in the regression of more than +/−0.43 log units from the experimental value are defined as outliers. […] In the next step, the COSMO-RS regression equation is linked to the regression table which contains all descriptors for all cosmetic auxiliaries. The use of the COSMO-RS regression equation on all cosmetic auxiliaries gives the prediction for the logarithmic relative partition parameters for all cosmetic auxiliaries. These values are then used for the manufacture of cosmetic products. The procedure is analogous in all examples.
(§2) The example reflects the substantivity of a sunscreen emulsion. […] The extracts are injected in equal amounts one after the other into a GC injector, and gas chromatograms are recorded. […]

[2] = W/O emulsion, substantivity on skin model (water resistance, watering test); assay type: physicochemical, sheep; settings: amount found after 20 min watering relative to unwatered sample, isopropanol extract, GC, converted to the logarithm
Procedure: as §1, §2

CCCCC(CC)COC(=O)C=Cc1ccc(OC)cc1 (centres unmarked) [Neo Heliopan ® AV, Ethylhexylmethoxycinnamate]
Activity (logarithmic partition parameter for substantivity on a skin model) [1]: −0.1752
Activity (logarithmic partition parameter for substantivity on a skin model) [2]: −0.2147
